No constants are given. Whether binding was seen depends on the method and setting. Binding seen in cells or lysates may run through a third protein. Some binding calls cover weakened binding; strength is not graded here.

The first assay deals with H-2Db (mouse) (UniProt P01899). In words: immunoprecipitation of MHCI from MC-38 cells, peptide elution, LC-MS/MS.
As to AQLANDVVL [Reps1 mutant peptide …], the binding entry is on record as “binds”.

For the molecule SSPYSLHYL [Cpne1 mutant peptide …], the binding entry is “binds”.

Regarding AALLNSAVL [Irgq mutant peptide …], the binding entry is given as “binds”.

Consider MAPIDHTTM [Aatf mutant peptide …], for which the binding entry was “binds”.

On to ASMTNMELM [Adpgk mutant peptide …], for which the binding entry is listed as “binds”.

The target in the next assay is H-2Kb (mouse) (UniProt P01901). Described as above.
Take DPSSSVLFEY [Med12 mutant peptide …]: the binding entry is listed as “binds”.

Turning to SIIVFNLL [Dpagt1 mutant peptide SIIVFNLL], the binding result was “binds”.
